No constants are given. Whether binding was seen depends on the method and setting. In cells and extracts the contact can be indirect. A yes stands for co-enrichment or nearness to the bait. Other partners may have been found.

The chains behind the UniProt entries cited, without tags or fusion partners.
UniProt Q96KQ7: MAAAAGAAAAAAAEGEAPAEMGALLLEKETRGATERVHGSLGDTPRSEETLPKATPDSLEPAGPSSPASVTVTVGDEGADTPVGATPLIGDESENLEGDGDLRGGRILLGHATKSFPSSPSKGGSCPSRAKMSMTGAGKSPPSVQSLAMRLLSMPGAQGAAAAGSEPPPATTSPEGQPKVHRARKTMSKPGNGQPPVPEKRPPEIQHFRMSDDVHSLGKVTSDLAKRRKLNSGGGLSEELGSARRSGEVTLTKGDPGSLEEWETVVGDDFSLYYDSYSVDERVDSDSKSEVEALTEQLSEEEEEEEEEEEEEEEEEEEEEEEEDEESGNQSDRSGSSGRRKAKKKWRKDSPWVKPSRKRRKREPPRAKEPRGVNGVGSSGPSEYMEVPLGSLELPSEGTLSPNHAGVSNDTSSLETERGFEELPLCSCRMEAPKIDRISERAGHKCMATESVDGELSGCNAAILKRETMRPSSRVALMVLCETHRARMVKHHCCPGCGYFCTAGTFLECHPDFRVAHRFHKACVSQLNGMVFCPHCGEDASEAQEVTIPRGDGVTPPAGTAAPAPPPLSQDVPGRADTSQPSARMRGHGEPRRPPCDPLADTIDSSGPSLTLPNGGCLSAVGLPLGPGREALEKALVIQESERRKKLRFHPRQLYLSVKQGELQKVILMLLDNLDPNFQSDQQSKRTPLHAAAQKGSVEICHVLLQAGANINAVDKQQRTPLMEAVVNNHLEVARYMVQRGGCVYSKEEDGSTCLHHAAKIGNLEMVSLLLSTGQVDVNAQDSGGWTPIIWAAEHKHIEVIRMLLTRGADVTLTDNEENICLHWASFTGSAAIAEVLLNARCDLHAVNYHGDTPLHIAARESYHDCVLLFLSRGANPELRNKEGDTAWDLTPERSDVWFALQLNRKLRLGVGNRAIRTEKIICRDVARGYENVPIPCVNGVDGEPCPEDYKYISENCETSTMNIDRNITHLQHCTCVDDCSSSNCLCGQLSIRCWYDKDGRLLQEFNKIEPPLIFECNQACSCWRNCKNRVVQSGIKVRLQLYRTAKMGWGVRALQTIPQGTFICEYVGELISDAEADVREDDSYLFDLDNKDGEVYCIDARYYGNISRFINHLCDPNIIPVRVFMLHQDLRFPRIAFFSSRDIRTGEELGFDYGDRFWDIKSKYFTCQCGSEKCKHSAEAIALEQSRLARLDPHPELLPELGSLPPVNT
UniProt O43524: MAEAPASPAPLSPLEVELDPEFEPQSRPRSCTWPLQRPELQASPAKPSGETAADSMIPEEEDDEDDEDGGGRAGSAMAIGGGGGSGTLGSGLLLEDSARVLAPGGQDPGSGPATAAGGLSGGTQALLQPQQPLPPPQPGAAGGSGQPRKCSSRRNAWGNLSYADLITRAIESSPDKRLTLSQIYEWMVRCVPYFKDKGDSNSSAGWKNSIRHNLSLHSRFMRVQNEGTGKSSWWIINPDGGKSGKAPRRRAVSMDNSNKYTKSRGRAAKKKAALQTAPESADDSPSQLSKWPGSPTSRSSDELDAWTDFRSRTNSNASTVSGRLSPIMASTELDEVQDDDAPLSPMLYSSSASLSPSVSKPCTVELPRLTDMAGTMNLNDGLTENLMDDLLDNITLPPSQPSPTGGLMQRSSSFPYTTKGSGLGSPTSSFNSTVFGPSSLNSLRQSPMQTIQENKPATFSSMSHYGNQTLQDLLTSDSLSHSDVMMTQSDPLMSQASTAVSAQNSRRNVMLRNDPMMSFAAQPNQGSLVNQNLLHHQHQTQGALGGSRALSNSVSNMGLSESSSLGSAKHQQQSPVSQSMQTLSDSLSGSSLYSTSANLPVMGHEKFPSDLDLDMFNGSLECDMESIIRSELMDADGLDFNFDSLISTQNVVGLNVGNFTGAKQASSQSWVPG

Drawing on article PMC12750793, this text covers binding for 1 substance.

This assay concerns the target G9a (UniProt Q96KQ7). The assay is described as follows: affinity purification with mass spectrometry; proteins interacting with G9a identified by MS; cells and way of capture not stated.

On to FoxO3a (from UniProt O43524 1-673), for which the binding entry is “binds”.
